{
  "sequences": {"note": "By UniProt entry, the sequences of proteins in these tests, tags left out. Where a name states a change or a piece, a line headed by the entry shows the natural chain unless it says otherwise.", "UniProt P35637": "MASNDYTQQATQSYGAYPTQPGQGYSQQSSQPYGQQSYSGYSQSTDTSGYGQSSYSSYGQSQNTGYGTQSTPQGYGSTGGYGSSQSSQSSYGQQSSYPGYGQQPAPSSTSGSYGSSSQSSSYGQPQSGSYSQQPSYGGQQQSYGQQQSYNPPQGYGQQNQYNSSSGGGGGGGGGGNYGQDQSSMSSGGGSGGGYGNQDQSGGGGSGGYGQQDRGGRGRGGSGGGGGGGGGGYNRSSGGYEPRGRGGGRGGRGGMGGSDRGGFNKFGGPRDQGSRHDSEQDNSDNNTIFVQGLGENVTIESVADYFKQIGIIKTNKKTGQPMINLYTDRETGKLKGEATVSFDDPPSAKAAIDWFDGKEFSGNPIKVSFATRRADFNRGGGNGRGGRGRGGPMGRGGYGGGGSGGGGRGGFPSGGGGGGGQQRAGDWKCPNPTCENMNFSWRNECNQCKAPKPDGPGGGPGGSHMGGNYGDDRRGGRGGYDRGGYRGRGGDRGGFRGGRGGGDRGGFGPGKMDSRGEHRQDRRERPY", "UniProt Q14974": "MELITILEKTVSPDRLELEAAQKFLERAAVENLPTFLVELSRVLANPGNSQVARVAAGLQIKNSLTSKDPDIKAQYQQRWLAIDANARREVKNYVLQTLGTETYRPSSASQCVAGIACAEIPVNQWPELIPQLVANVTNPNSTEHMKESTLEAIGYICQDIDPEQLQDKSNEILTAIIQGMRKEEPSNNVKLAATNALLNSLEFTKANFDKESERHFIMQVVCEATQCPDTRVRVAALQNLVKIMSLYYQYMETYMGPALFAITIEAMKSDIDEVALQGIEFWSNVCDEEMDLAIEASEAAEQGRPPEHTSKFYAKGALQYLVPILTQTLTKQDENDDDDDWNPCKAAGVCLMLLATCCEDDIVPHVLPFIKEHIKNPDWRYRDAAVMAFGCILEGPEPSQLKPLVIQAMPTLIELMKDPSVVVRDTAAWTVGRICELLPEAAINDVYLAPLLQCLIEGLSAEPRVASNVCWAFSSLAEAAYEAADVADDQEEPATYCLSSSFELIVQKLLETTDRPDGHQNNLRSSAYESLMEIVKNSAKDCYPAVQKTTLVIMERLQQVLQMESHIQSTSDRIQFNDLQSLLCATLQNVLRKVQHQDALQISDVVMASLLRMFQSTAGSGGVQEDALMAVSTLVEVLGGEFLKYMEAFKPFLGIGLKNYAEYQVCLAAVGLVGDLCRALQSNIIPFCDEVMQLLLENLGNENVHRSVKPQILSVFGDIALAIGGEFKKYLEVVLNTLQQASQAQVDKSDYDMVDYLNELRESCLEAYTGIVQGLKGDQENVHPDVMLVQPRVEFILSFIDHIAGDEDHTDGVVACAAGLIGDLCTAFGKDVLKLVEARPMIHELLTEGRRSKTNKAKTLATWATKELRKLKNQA", "UniProt O15397": "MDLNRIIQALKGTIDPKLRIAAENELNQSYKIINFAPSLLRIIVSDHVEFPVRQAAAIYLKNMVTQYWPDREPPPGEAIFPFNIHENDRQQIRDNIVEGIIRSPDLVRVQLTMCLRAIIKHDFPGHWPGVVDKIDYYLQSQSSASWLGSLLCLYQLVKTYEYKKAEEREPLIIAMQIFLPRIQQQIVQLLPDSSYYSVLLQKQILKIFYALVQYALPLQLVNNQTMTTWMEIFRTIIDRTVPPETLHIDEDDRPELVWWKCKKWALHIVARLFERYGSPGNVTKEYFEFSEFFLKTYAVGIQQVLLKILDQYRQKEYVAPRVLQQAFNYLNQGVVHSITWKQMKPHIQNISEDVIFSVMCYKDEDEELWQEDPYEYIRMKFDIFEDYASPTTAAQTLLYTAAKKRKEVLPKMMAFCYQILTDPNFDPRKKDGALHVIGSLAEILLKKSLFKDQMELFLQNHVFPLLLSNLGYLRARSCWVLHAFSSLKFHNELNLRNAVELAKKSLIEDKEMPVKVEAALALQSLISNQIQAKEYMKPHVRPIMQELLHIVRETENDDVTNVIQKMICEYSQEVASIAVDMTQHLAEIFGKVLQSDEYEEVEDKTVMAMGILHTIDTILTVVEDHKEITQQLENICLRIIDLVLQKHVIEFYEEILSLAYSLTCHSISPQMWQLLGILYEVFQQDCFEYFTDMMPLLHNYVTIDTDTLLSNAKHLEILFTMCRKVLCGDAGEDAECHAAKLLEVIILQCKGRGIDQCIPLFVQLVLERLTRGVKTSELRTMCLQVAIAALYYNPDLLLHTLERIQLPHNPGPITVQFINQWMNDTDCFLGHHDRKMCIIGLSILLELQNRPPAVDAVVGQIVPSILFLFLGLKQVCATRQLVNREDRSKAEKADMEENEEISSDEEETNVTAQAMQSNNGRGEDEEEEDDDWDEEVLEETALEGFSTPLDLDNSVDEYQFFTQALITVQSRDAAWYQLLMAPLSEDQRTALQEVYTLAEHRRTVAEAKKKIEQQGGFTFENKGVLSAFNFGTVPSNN", "UniProt P55060": "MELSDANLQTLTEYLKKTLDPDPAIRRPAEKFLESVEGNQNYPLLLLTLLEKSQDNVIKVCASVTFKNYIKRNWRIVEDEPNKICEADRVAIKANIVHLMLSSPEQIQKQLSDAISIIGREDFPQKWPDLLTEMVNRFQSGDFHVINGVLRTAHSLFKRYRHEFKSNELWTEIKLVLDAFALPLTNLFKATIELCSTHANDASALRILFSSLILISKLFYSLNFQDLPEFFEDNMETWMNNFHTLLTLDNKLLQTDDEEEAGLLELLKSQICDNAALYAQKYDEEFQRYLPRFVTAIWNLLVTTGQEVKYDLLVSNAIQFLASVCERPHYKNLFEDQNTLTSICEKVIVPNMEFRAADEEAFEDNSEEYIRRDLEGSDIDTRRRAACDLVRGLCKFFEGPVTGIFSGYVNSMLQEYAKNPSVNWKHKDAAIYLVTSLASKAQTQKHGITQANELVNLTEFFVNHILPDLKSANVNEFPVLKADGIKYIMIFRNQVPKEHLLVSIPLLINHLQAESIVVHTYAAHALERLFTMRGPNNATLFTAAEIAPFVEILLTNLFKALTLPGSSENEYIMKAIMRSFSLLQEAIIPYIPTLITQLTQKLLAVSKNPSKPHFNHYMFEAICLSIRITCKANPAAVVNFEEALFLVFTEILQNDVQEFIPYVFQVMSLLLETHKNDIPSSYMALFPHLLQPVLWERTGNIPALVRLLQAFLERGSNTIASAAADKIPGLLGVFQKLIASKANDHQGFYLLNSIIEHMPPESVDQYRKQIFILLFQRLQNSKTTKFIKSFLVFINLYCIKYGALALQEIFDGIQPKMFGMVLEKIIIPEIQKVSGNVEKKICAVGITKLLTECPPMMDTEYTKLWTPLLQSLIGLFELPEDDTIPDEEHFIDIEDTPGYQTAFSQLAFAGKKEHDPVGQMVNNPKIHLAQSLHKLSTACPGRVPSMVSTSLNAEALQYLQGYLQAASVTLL", "UniProt P05198": "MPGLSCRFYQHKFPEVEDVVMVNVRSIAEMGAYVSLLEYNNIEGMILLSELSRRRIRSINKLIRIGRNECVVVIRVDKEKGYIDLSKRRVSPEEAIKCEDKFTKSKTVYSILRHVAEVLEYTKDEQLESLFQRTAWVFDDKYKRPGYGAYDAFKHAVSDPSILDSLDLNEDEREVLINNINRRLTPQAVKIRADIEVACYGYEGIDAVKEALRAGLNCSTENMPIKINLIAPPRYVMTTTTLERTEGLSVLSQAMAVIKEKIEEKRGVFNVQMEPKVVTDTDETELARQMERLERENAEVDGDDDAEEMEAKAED", "UniProt Q9HAV4": "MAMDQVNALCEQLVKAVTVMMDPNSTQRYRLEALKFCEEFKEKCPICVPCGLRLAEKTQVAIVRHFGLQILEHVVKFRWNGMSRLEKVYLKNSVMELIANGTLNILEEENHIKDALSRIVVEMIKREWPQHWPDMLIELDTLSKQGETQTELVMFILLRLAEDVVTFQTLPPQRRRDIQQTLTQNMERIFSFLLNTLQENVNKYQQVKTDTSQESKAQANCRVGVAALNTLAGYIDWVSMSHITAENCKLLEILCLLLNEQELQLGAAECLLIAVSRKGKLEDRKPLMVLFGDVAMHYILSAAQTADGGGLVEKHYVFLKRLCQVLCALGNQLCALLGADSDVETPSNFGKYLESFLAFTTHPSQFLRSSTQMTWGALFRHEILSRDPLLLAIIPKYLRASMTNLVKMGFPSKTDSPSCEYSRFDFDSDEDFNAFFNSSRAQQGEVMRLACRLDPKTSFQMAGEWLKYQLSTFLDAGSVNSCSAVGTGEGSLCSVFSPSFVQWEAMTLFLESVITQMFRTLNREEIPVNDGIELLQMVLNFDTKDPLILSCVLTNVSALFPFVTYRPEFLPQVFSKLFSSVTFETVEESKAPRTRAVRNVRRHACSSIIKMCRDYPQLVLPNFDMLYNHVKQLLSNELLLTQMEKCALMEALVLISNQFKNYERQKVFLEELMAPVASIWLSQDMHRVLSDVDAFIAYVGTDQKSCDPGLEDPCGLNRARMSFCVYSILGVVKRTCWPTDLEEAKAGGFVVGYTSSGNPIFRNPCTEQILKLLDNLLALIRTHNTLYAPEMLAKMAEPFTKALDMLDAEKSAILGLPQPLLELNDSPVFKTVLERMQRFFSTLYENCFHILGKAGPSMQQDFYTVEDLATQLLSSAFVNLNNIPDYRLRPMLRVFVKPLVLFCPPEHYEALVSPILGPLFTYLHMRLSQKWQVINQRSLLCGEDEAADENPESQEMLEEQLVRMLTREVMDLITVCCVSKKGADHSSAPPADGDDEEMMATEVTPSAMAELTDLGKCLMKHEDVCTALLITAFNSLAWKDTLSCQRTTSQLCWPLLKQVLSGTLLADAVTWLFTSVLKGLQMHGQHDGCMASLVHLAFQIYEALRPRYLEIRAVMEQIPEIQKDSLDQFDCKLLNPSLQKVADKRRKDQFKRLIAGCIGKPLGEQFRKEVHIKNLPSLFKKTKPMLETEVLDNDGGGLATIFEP"},
  "source": "paper PMC9372748",
  "molecules": {"B1": {"name": "UPF1 (protein, UniProt Q92900 1-1129)", "chain": "MSVEAYGPSSQTLTFLDTEEAELLGADTQGSEFEFTDFTLPSQTQTPPGGPGGPGGGGAGGPGGAGAGAAAGQLDAQVGPEGILQNGAVDDSVAKTSQLLAELNFEEDEEDTYYTKDLPIHACSYCGIHDPACVVYCNTSKKWFCNGRGNTSGSHIVNHLVRAKCKEVTLHKDGPLGETVLECYNCGCRNVFLLGFIPAKADSVVVLLCRQPCASQSSLKDINWDSSQWQPLIQDRCFLSWLVKIPSEQEQLRARQITAQQINKLEELWKENPSATLEDLEKPGVDEEPQHVLLRYEDAYQYQNIFGPLVKLEADYDKKLKESQTQDNITVRWDLGLNKKRIAYFTLPKTDSGNEDLVIIWLRDMRLMQGDEICLRYKGDLAPLWKGIGHVIKVPDNYGDEIAIELRSSVGAPVEVTHNFQVDFVWKSTSFDRMQSALKTFAVDETSVSGYIYHKLLGHEVEDVIIKCQLPKRFTAQGLPDLNHSQVYAVKTVLQRPLSLIQGPPGTGKTVTSATIVYHLARQGNGPVLVCAPSNIAVDQLTEKIHQTGLKVVRLCAKSREAIDSPVSFLALHNQIRNMDSMPELQKLQQLKDETGELSSADEKRYRALKRTAERELLMNADVICCTCVGAGDPRLAKMQFRSILIDESTQATEPECMVPVVLGAKQLILVGDHCQLGPVVMCKKAAKAGLSQSLFERLVVLGIRPIRLQVQYRMHPALSAFPSNIFYEGSLQNGVTAADRVKKGFDFQWPQPDKPMFFYVTQGQEEIASSGTSYLNRTEAANVEKITTKLLKAGAKPDQIGIITPYEGQRSYLVQYMQFSGSLHTKLYQEVEIASVDAFQGREKDFIILSCVRANEHQGIGFLNDPRRLNVALTRARYGVIIVGNPKALSKQPLWNHLLNYYKEQKVLVEGPLNNLRESLMQFSKPRKLVNTINPGARFMTTAMYDAREAIIPGSVYDRSSQGRPSSMYFQTHDQIGMISAGPSHVAAMNIPIPFNLVMPPMPPPGYFGQANGPAAGRGTPKGKTGRGGRQKNRFGLPGPSQTNLPNSQASQDVASQPFSQGALTQGYISMSQPSQMSQPGLSQPELSQDSYLGDEFKSQIDVALSQDSTYQGERAYQHGGVTGLSQY"}, "B2": {"name": "MOV10 (protein, UniProt Q9HCE1 1-1003)", "chain": "MPSKFSCRQLREAGQCFESFLVVRGLDMETDRERLRTIYNRDFKISFGTPAPGFSSMLYGMKIANLAYVTKTRVRFFRLDRWADVRFPEKRRMKLGSDISKHHKSLLAKIFYDRAEYLHGKHGVDVEVQGPHEARDGQLLIRLDLNRKEVLTLRLRNGGTQSVTLTHLFPLCRTPQFAFYNEDQELPCPLGPGECYELHVHCKTSFVGYFPATVLWELLGPGESGSEGAGTFYIARFLAAVAHSPLAAQLKPMTPFKRTRITGNPVVTNRIEEGERPDRAKGYDLELSMALGTYYPPPRLRQLLPMLLQGTSIFTAPKEIAEIKAQLETALKWRNYEVKLRLLLHLEELQMEHDIRHYDLESVPMTWDPVDQNPRLLTLEVPGVTESRPSVLRGDHLFALLSSETHQEDPITYKGFVHKVELDRVKLSFSMSLLSRFVDGLTFKVNFTFNRQPLRVQHRALELTGRWLLWPMLFPVAPRDVPLLPSDVKLKLYDRSLESNPEQLQAMRHIVTGTTRPAPYIIFGPPGTGKTVTLVEAIKQVVKHLPKAHILACAPSNSGADLLCQRLRVHLPSSIYRLLAPSRDIRMVPEDIKPCCNWDAKKGEYVFPAKKKLQEYRVLITTLITAGRLVSAQFPIDHFTHIFIDEAGHCMEPESLVAIAGLMEVKETGDPGGQLVLAGDPRQLGPVLRSPLTQKHGLGYSLLERLLTYNSLYKKGPDGYDPQFITKLLRNYRSHPTILDIPNQLYYEGELQACADVVDRERFCRWAGLPRQGFPIIFHGVMGKDEREGNSPSFFNPEEAATVTSYLKLLLAPSSKKGKARLSPRSVGVISPYRKQVEKIRYCITKLDRELRGLDDIKDLKVGSVEEFQGQERSVILISTVRSSQSFVQLDLDFNLGFLKNPKRFNVAVTRAKALLIIVGNPLLLGHDPDWKVFLEFCKENGGYTGCPFPAKLDLQQGQNLLQGLSKLSPSTSGPHSHDYLPQEREGEGGLSLQVEPEWRNEL"}},
  "test_in_all_cases": "proximity labelling; APEX2-FUS fusions transfected in HEK293T; 500 uM biotin-phenol 30 min, 1 mM H2O2 1 min; biotinylated proteins enriched on streptavidin magnetic beads, on-bead digestion, label-free LC-MS/MS; SAINT probability >=0.95 against untransfected control cells",
  "key": {"APEX2-FUS P525L (human) [1]": {"biological_target": "APEX2-FUS P525L (human) (UniProt P35637)"}, "APEX2-FUS WT (human) [2]": {"biological_target": "APEX2-FUS WT (human) (UniProt P35637)"}, "APEX2-FUS P525L (human) [3]": {"biological_target": "APEX2-FUS P525L (human) (UniProt P35637)", "remark": "listed apart in the source"}, "APEX2-FUS WT (human) [4]": {"biological_target": "APEX2-FUS WT (human) (UniProt P35637)", "remark": "listed apart in the source"}},
  "note": "Like-named read-outs stand apart in the source and are kept apart here. These are yes or no findings as the source states them, for the method shown. In cells and extracts the contact can be indirect. A yes stands for co-enrichment or nearness to the bait. Other partners may have been found.",
  "data": [
    {"molecule": "importin subunit beta-1 (IMB1; KPNB1) (from UniProt Q14974 1-876)", "values": [
      {"measurement": "binding", "setting": "APEX2-FUS P525L (human) [1]", "value": "binds"},
      {"measurement": "binding", "setting": "APEX2-FUS WT (human) [2]", "value": "binds"}
    ]},
    {"molecule": "importin-8 (IPO8) (from UniProt O15397 1-1037)", "values": [
      {"measurement": "binding", "setting": "APEX2-FUS P525L (human) [1]", "value": "binds"},
      {"measurement": "binding", "setting": "APEX2-FUS WT (human) [2]", "value": "binds"}
    ]},
    {"molecule": "chromosome segregation 1 like/exportin-2 (CSE1L/XPO2) (from UniProt P55060 1-971)", "values": [
      {"measurement": "binding", "setting": "APEX2-FUS P525L (human) [1]", "value": "binds"},
      {"measurement": "binding", "setting": "APEX2-FUS WT (human) [2]", "value": "binds"}
    ]},
    {"molecule": "eIF2α (from UniProt P05198 1-315)", "values": [
      {"measurement": "binding", "setting": "APEX2-FUS P525L (human) [1]", "value": "binds"},
      {"measurement": "binding", "setting": "APEX2-FUS WT (human) [2]", "value": "binds"}
    ]},
    {"molecule": "exportin-5 (XPO5) (from UniProt Q9HAV4 1-1204)", "values": [
      {"measurement": "binding", "setting": "APEX2-FUS P525L (human) [1]", "value": "binds"},
      {"measurement": "binding", "setting": "APEX2-FUS WT (human) [2]", "value": "binds"}
    ]},
    {"molecule": "karyopherin subunit alpha 6 (KPNA6) (from UniProt O60684 1-536)", "values": [
      {"measurement": "binding", "setting": "APEX2-FUS P525L (human) [1]", "value": "binds"},
      {"measurement": "binding", "setting": "APEX2-FUS WT (human) [2]", "value": "binds"}
    ]},
    {"molecule": "B1", "values": [
      {"measurement": "binding", "setting": "APEX2-FUS P525L (human) [3]", "value": "binds"},
      {"measurement": "binding", "setting": "APEX2-FUS WT (human) [4]", "value": "binds"}
    ]},
    {"molecule": "B2", "values": [
      {"measurement": "binding", "setting": "APEX2-FUS P525L (human) [3]", "value": "binds"},
      {"measurement": "binding", "setting": "APEX2-FUS WT (human) [4]", "value": "binds"}
    ]}
  ]
}
